Measured values as given in US20240002542A1 (SYNTHEKINE, published 2024).
No constants are given. Whether binding was seen depends on the method and setting. Some binding calls cover weakened binding; strength is not graded here.

T1: hIL27Ra-his (Origene, Catalog #TP307012) (human, UniProt Q6UWB1 33-516, limits assumed)
T1 construct: Bought his-tagged cytokine receptor used as SPR analyte; also called human IL27 receptor subunit alpha; not shown: his tag
T1 sequence: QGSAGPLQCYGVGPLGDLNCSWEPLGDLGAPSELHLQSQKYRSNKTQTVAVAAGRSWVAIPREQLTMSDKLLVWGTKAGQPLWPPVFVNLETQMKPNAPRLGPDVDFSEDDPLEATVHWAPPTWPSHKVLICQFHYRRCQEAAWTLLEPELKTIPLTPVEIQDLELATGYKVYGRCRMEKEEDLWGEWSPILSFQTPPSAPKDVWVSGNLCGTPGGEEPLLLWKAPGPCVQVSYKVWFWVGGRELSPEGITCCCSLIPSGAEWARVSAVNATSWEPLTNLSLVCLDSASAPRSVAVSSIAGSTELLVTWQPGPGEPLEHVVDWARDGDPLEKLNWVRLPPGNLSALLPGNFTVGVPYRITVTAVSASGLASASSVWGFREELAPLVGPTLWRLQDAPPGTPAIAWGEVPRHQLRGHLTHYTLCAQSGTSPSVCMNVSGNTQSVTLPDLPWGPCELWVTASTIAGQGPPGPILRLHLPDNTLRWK


Target: T1, hIL27Ra-his (Origene, Catalog #TP307012)
Experiment: ELISA

Row | Binder | binding
1 | hIL27Ra_VHH1 (VHH) VHH: QVQLQESGGGLVQPGGSLRLSCAASGFTFSSYPMSWVRQAPGKGLEWISTISAGGDTTLYADSVKGRFTSSRDNAKNTLYLQLNSLKTEDAAIYYCAKRIDCNSGYCYRRNYWGQGTQVTVSS | binds
2 | hIL27Ra_VHH4 (VHH) VHH: QVQLQESGGGLVQPGESLRLSCTASGFTFSNYAMSWVRQAPGKGLEWVSGINVAYGITSYADSVKGRFTISRDNTKNTLYLQLNSLKTEDTAIYYCVKHSGTTIPRGFISYTKRGQGTQVTVSS | binds
3 | hIL27Ra_VHH6 (VHH) VHH: QVQLQESGGGLVQPGGSLRLSCAASGFSFSSYAMKWVRQAPGKGLEWVSTISSGGSSTNYADSVKGRFTISRDNAKNTLYLQLNSLKIEDTAMYYCAKAIVPTGATMERGQGTQVTVSS | binds
4 | hIL27Ra_VHH9 (VHH) VHH: QVQLQESGGGSVQSGGSLRLSCAASGFTYSTSNSWMAWFRQAPGKEREGVAAIYTVGGSIFYADSVRGRFTISQDATKNMFYLQMNTLKPEDTAMYYCAAASGRLRGKWFWPYEYNYWGQGTQVTVSS | binds
5 | hIL27Ra_VHH15 (VHH) VHH: QVQLQESGGGSVQAGGSLRLSCVASGYVSCDYFLPSWYRQAPGKEREFVSIIDGTGSTSYAASVKGRFTASQDKGKNIAYLQMNTLKPEDTAMYYCKASCVRGRAISEYWGQGTQVTVSS | binds
6 | hIL27Ra_VHH19 (VHH) VHH: QVQLQESGGGSVQAGGSLRLSCRASGSTYSNYCLGWFRQITGKEREGVAVINWVGGMLYFADSVKGRFTVSQDQAKNTVYLQMNSLKPEDTAMYYCAAESVSSFSCGGWLTRPDRVPYWGQGTQVTVSS | binds
7 | hIL27Ra_VHH21 (VHH) VHH: QVQLQESGGGLVQPGGSLRLSCAASGFTFSLSSMSWVRQAPGKGLEWVSAISSGGASTYYTDSVKGRFTISRDNAKNMLYLQLNSLKTEDTAMYYCAKGGSGYGDASRMTSPGSQGTQVTVSS | binds
